From patent US12642841
Results are given in words; binding and its absence hold for the method and conditions named. Some binding calls cover weakened binding; strength is not graded here.

By UniProt entry, the sequences of proteins in these tests, tags left out. Where a name states a change or a piece, a line headed by the entry shows the natural chain unless it says otherwise.
UniProt P01215: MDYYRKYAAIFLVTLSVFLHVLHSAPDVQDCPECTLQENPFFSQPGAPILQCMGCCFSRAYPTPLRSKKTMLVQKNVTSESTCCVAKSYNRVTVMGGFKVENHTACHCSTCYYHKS

Molecular target: T1, FSHR on Sertoli cells of prepubescent Large-White piglets (pig (piglets, Large-White breed)) (UniProt P49059)
T1 sequence (looked up): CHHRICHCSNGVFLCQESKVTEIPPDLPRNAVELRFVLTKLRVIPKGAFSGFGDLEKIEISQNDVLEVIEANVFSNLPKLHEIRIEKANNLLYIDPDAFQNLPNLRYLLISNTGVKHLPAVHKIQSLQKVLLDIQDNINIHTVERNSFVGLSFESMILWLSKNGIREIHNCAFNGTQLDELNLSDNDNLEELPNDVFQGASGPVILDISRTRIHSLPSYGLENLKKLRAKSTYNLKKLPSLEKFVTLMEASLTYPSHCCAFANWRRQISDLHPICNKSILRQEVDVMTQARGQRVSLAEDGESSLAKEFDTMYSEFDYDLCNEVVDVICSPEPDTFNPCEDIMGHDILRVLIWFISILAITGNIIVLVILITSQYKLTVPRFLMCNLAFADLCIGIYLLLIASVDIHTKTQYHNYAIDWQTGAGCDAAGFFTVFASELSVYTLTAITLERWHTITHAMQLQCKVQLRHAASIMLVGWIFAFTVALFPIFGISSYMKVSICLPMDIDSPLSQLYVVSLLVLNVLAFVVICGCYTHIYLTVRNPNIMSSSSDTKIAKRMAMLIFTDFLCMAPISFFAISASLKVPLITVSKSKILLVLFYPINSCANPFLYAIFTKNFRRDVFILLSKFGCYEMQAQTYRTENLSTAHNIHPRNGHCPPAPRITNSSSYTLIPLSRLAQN
Test: estradiol production in piglet Sertoli cells

binding: binds
Substance: Gonal-F® (recombinant FSH-based commercial preparation) (from UniProt P01215 25-116; P01225 19-129) (ligand)
